Data as given in patent publication US20240352088A1 (AICHI PREFECTURE, published 2024).
These are yes or no findings as the source states them, for the method shown. Some binding calls cover weakened binding; strength is not graded here.

Chains of the proteins cited; added tags and fusions are not shown. Residues count along the entry.
UniProt P05231, residues 30-212: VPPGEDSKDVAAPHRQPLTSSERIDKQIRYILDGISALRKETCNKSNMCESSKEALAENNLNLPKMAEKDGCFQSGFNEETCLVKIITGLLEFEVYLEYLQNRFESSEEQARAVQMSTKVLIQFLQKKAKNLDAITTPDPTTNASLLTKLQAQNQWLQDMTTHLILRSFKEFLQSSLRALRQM
UniProt P04141, residues 18-144: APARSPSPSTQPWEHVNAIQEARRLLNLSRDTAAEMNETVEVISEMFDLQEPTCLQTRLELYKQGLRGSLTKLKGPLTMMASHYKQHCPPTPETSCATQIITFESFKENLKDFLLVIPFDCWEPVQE

B1: chimeric cytokine receptor IL6R-ca7R (receptor)
chain: LAPRRCPAQEVARGVLTSLPGDSVTLTCPGVEPEDNATVHWVLRKPAAGSHPSRWAGMGRRLLLRSVQLHDSGNYSCYRAGRPAGTVHLLVDVPPEEPQLSCFRKSPLSNVVCEWGPRSTPSLTTKAVLLVRKFQNSPAEDFQEPCQYSQESQKFSCQLAVPEGDSSFYIVSMCVASSVGSKFSKTQTFQGCGILQPDPPANITVTAVARNPRWLSVTWQDPHSWNSSFYRLRFELRYRAERSKTFTTWMVKDLQHHCVIHDAWSGLRHVVQLRAQEEFGQGEWSEWSPEAMGTPWTESRSPPAENEVSTPMQALTTNKDDDNILFRDSANATSLPVQDSSSVPLPNNSSGEMDPILLPPCLTISILSFFSVALLVILACVLWKKRIKPIVWPSLPDHKKTLEHLCKKPRKNLNVSFNPESFLDCQIHRVDDIQARDEVEGFLQDTFPQQLEESEKQRLGGDVQSPNCPSEDVVITPESFGRDSSLTCLAGNVSACDAPILSSSRSLDCRESGKNGPHVYQDLLLSLGTTNSTLPPPFSLQSGILTLNPVAQGQPILTSLGSNQEEAYVTMSSFYQNQ
B2: chimeric cytokine receptors CSF2RA-ca7R and CSF2RB-ca7R, co-introduced (receptor)
chain 1: EKSDLRTVAPASSLNVRFDSRTMNLSWDCQENTTFSKCFLTDKKNRVVEPRLSNNECSCTFREICLHEGVTFEVHVNTSQRGFQQKLLYPNSGREGTAAQNFSCFIYNADLMNCTWARGPTAPRDVQYFLYIRNSKRRREIRCPYYIQDSGTHVGCHLDNLSGLTSRNYFLVNGTSREIGIQFFDSLLDTKKIERFNPPSNVTVRCNTTHCLVRWKQPRTYQKLSYLDFQYQLDVHRKNTQPGTENLLINVSGDLENRYNFPSSEPRAKHSVKIRAADVRILNWSSWSEAIEFGSDDGNNSSGEMDPILLPPCLTISILSFFSVALLVILACVLWKKRIKPIVWPSLPDHKKTLEHLCKKPRKNLNVSFNPESFLDCQIHRVDDIQARDEVEGFLQDTFPQQLEESEKQRLGGDVQSPNCPSEDVVITPESFGRDSSLTCLAGNVSACDAPILSSSRSLDCRESGKNGPHVYQDLLLSLGTTNSTLPPPFSLQSGILTLNPVAQGQPILTSLGSNQEEAYVTMSSFYQNQ
chain 2: WERSLAGAEETIPLQTLRCYNDYTSHITCRWADTQDAQRLVNVTLIRRVNEDLLEPVSCDLSDDMPWSACPHPRCVPRRCVIPCQSFVVTDVDYFSFQPDRPLGTRLTVTLTQHVQPPEPRDLQISTDQDHFLLTWSVALGSPQSHWLSPGDLEFEVVYKRLQDSWEDAAILLSNTSQATLGPEHLMPSSTYVARVRTRLAPGSRLSGRPSKWSPEVCWDSQPGDEAQPQNLECFFDGAAVLSCSWEVRKEVASSVSFGLFYKPSPDAGEEECSPVLREGLGSLHTRHHCQIPVPDPATHGQYIVSVQPRRAEKHIKSSVNIQMAPPSLNVTKDGDSYSLRWETMKMRYEHIDHTFEIQYRKDTATWKDSKTETLQNAHSMALPALEPSTRYWARVRVRTSRTGYNGIWSEWSEARSWDTESVLPMWNNSSGEMDPILLPPCLTISILSFFSVALLVILACVLWKKRIKPIVWPSLPDHKKTLEHLCKKPRKNLNVSFNPESFLDCQIHRVDDIQARDEVEGFLQDTFPQQLEESEKQRLGGDVQSPNCPSEDVVITPESFGRDSSLTCLAGNVSACDAPILSSSRSLDCRESGKNGPHVYQDLLLSLGTTNSTLPPPFSLQSGILTLNPVAQGQPILTSLGSNQEEAYVTMSSFYQNQ

Experiments:
IL-6 (interleukin-6) [1] = biological target: T1, IL-6 (interleukin-6) (human, UniProt P05231 30-212); assay: IL-6 added to cells or to cell-free culture supernatant, ELISA of remaining IL-6
T1 construct: also called recombinant IL-6; human IL-6

IL-6 (interleukin-6) [2] = biological target: T1, IL-6 (interleukin-6); assay: depletion of added IL-6 (3,000 pg/mL) from the culture supernatant after 48 h, ELISA
[3] = biological target: GM-CSF (Granulocyte macrophage colony-stimulating factor) (UniProt P04141); assay: co-culture with NALM6 and THP1 cells, ELISA of GM-CSF in the supernatant
[4] = biological target: GM-CSF (Granulocyte macrophage colony-stimulating factor) (UniProt P04141); assay: depletion of added recombinant GM-CSF from the culture supernatant after 48 h, ELISA

Row | Binder | binding (IL-6 (interleukin-6) [1]) | binding (IL-6 (interleukin-6) [2]) | binding [3] | binding [4]
1 | B1 | binds | binds | – | –
2 | B2 | – | – | binds | binds
